The assay can be described thus: IkB Signaling. The settings on record: ABC-DLBCL IkBa-CBG/CBR dual luciferase ratio (green luciferase fused to IkBa over red control in OCI-Ly3 lymphoma cells), 4 h. The source says: NIH Molecular Libraries Screening Centers Network [MLSCN]
NIH Chemical Genomics Center [NCGC]
Nuclear factor kappa-B (NF-kappa-B) plays an important role in normal B cell development and survival. Diffuse large B cell lymphoma (DLBCL) is the most commonly observed type of non-Hodgkin's lymphoma. Gene expression analysis has identified an activated B cell-like subtype of DLBCL (ABC-DLBCL) which expresses known NF-kappa-B target genes. […] However, targets upstream of IKK have been largely unexplored and so nodes upstream of IKK in the NF-kappa-B pathway remain untested due to the lack of chemical probes.
A cell-sensor assay for I-kappa-B-alpha stabilization was developed with NIH investigator Dr. R. Eric Davis in Dr. Louis M. Staudt's laboratory. The assay uses green (CBG68) and red (CBR) emitting beetle luciferases [Chroma-Glo(TM) developed by Promega Corp.] where the green luciferase is fused to I-kappa-B-alpha and the red luciferase is present in its native state. Both luciferase genes are stably present in the OCI-Ly3 human ABC DLBCL cell line, but their expression is under the control of tetracycline-inducible promoters. Following the addition of doxycycline to induce expression of the luciferases, the green luminescence in control cultures rises only slowly because the CBG fusion partner I-kappa-B-alpha is targeted by IKK activity for rapid degradation. In contrast, green luminescence rises rapidly in the presence of proteasome inhibitors or IKK inhibitors. The rise in red luminescence of CBR is not affected by proteasome or IKK inhibitors, and serves as normalization for cell number and nonspecific effects. Compounds were screened as a concentration-titration series that ranged from 57 uM to 0.7 nM.
NCGC Assay Protocol Summary:
Cells were seeded in 1536-well plates at 5000 cells/3ul in IMDM medium containing 0.5% FBS, w/o phenol red, L-glutamine, 25 mM HEPES, 3 mg/ml sodium bicarbonate. After centrifugation for 1 min. at 1000 rpm, 23 nl of compounds or DMSO were delivered to each well using a pin tool. Then 1ul 80ng/ml doxycycline was dispensed into white solid 1536-well plates and the plates were incubated at 37C/5% C02 in a cell incubator for 4 hrs. Then 4 ul Chroma-Glo luminescent substrate mix (Promega) was added to each well. The plate was incubated at R.T. for 10-15 min. The plates were measured on a ViewLux plate reader for green luminescence (540/20 nm filter) and red luminescence (618/8 nm filter). The green and red luminescent signals were corrected for red and green luminescence filter overlap using previously determined filter calibration constants (determined using the procedure outlined in the Promega Technical Manual). The %Activity was determined from the ratio of corrected green/red luminescent values. Green luminescent and ratio %Activity was determined by normalizing to the difference in signal between basal cells (0% Activity) and cells incubated with 10 uM of the proteasome inhibitor MG-132 (100% Activity). Red luminescent %Activity was normalized to the difference between red luminesence in basal cells (0%Activity) and zero luminescence (-100% Activity).
Concentration-response curves were fitted to the signals arising from the green luminescence (I-kappa-B-alpha-luciferase fusion; IkB-luc) and the red luminescence (unfused luciferase; luc) as well as the calculated ratio. The concentration-effect curves were then classified based on curve quality (r2), response magnitude and degree of measured activity. Compounds were then categorized based on their concentration-response curves for all three datasets (Ikb-luc, luc and ratio).
Keywords: IKK, I-kappa-B, IkB, IkBa, cytotoxicity, luminescence, MLSMR, MLSCN, NIH Roadmap, qHTS, NCGC

Setting [1] is: measured here: control luc red channel unless noted.

The list shows a part of the results. Further columns of the screen follow, without active or inactive calls. Compounds called inactive in the main read-out are mostly missing here. The note in brackets gives the kind of curve behind each potency; many fits are weak.

The source of these data is PubChem BioAssay AID445 (National Center for Advancing Translational Sciences (NCATS), 2006).

Consider `Cc1cccc(N2CCN(C(=O)Nc3ccc(F)cc3)CC2C)c1` (centres undefined), for which the AC50 under setting [1] is 31.6 µM [falling, single point].

On to `Cc1ccccc1NC(=O)Nc1nnc(N(C)Cc2ccccc2)s1`, for which, under setting [1], the AC50 was 39.8 µM [falling, single point].

With `O=c1[nH]c2c(s1)C(c1ccccc1)C1C3CCC(C3)C1S2` (centres undefined), the AC50 under setting [1] was 25.1 µM [falling, partial curve].

Regarding `Cc1ccc(N2CCN(C(=O)c3nn(C)c4c3CS(=O)(=O)c3ccccc3-4)CC2C)cc1` (centres undefined), the AC50 under setting [1] is 12.6 µM [falling, partial curve].

Regarding `O=C(c1cnn(-c2nc3ccccc3s2)c1)c1ccccc1O`, under setting [1], the half-maximal activity concentration (AC50) was 5.01 µM [falling, partial curve].

Turning to `COc1ccc(-n2cc3c(c2-c2cccc(Br)c2)c(=O)n(C)c(=O)n3C)cc1OC`, the AC50 under setting [1] is 25.1 µM [falling, single point].

In the case of `COc1cccc(NC(=O)Cn2c(=O)n(Cc3ccccc3)c(=O)c3c4c(sc32)CN(C(C)=O)CC4)c1`, under setting [1], the half-maximal activity concentration (AC50) is 39.8 µM [falling, single point].

With `CCCCc1ccc(NC(=O)Cn2cnc3c2c(=O)n(C)c(=O)n3C)cc1`, the AC50 under setting [1] was 10 µM [falling, partial curve].

Turning to `Cc1cc(C)cc(C(=O)Nc2ccc(-c3cn4cccnc4n3)cc2)c1`, the AC50 under setting [1] is 20 µM [rising, partial curve].

Turning to `CC(=O)c1ccc(NC(=O)c2cc3sccc3n2Cc2ccc(Cl)cc2)cc1`, under setting [1], the AC50 was 25.1 µM [falling, partial curve].

For `Cc1ccc(N(CC(=O)NCCSc2ccccc2)S(=O)(=O)c2ccc(F)cc2)cc1`, the AC50 under setting [1] is 15.8 µM [falling, partial curve].

For the compound `O=C(COc1ccc(Cl)cc1)NCC(c1ccco1)S(=O)(=O)c1ccc(F)cc1` (centres undefined), the AC50 under setting [1] is 5.01 µM [falling, full curve].

With `COc1ccc(CNC(=O)c2cc3cccc4c3n2CC(C)S4)cc1OC` (centres undefined), the AC50 under setting [1] is 31.6 µM [falling, single point].

Consider `Cc1ccc(CNS(=O)(=O)c2ccc3[nH]c4c(c3c2)CCCCC4)cc1`, for which the AC50 under setting [1] was 39.8 µM [falling, partial curve, poor fit].

In the case of `Cc1ccc(C)n1-n1c(C)nc2sc(-c3ccccc3)cc2c1=O`, the AC50 under setting [1] was 10 µM [falling, partial curve].

As for `COCCCn1c(SCC(=O)Nc2ccc(F)cc2)nc2c(sc3ccccc32)c1=O`, the AC50 under setting [1] is 3.16 µM [rising, partial curve, poor fit].

Turning to `Cc1cccc(NC(=O)C2CCCN(S(=O)(=O)c3ccc4c(c3)CCCC(=O)N4)C2)c1` (centres undefined), under setting [1], the AC50 is 25.1 µM [falling, partial curve].

Regarding `COc1ccc(Cl)cc1NC(=O)Cn1nc(C(F)(F)F)c2c1CCCC2`, the AC50 under setting [1] was 25.1 µM [falling, partial curve].

`CC(=O)Nc1c(C)nn(-c2ccccc2)c1N1CCC(C(=O)Nc2ccccc2C(F)(F)F)CC1`: the AC50 under setting [1] is 5.01 µM [rising, full curve, poor fit].

For `CC(C)c1ccc2c(c1)c(SC(C)(C)C)c(CC(C)(C)C(=O)O)n2Cc1ccc(Cl)cc1`, the AC50 under setting [1] was 6.31 µM [falling, partial curve].

Turning to `Cc1cc(C)c(NC(=O)CSC2=Nc3ccccc3C3=NC(CC(=O)NCc4cccs4)C(=O)N23)c(C)c1` (centres undefined), the AC50 under setting [1] is 15.8 µM [falling, partial curve].

Take `COc1ccc(C)cc1-n1nnc(S(=O)(=O)c2ccc(C)cc2)c1C`: the concentration at half-maximal activity (AC50) under setting [1] is 25.1 µM [falling, partial curve, poor fit].

Regarding `COc1ccc(CNc2oc(/C=C/c3cc(OC)c(OC)c(OC)c3)nc2C#N)cc1`, the AC50 under setting [1] is 12.6 µM [falling, partial curve].

Consider `Cc1nn(-c2ccccc2)c2[nH]c(=O)c(CNc3ccc4c(c3)OCCO4)cc12`, for which the half-maximal activity concentration (AC50) under setting [1] is 39.8 µM [falling, single point].

With `Cc1cccn2c(=O)c(C(=O)NC(C)c3ccccc3)c(O)nc12` (centres undefined), the AC50 under setting [1] was 15.8 µM [falling, partial curve].

Turning to `Cc1sc2ncnc(-n3cnc4ccccc43)c2c1C`, under setting [1], the AC50 is 31.6 µM [falling, partial curve].

On to `CCOC(=O)c1cc(-c2ccccc2)n(CC(=O)Nc2ccccc2OCC)c1C`, for which the AC50 under setting [1] is 3.98 µM [rising, partial curve].

In the case of `Fc1ccc(-c2csc(=Nc3cccc(C(F)(F)F)c3)n2Cc2ccc3c(c2)OCO3)cc1`, the AC50 under setting [1] was 5.01 µM [falling, partial curve, poor fit].

Regarding `COc1ccc(-c2nc(CCNC(=O)c3ccccc3)cs2)cc1OC`, the half-maximal activity concentration (AC50) under setting [1] was 1.58 µM [rising, full curve].

As to `Cc1cccc(C)c1NC(=O)CCCn1c(=O)c2cccn2c2ccccc21`, the AC50 under setting [1] is 39.8 µM [falling, single point].

For the compound `CCOC(=O)c1c(S(=O)(=O)NCC(=O)Nc2ccc(C(C)=O)cc2)c(C)n(C)c1C`, the AC50 under setting [1] is 1.26 µM [rising, full curve].

`Cc1ccc(Cl)cc1-n1ncc2c(Nc3ccc4c(c3)OCCO4)ncnc21`: the AC50 under setting [1] is 39.8 µM [falling, single point].

For `CCc1ccc(NC(=O)c2ccc(Cn3nc(N4CCN(c5ccccc5)CC4)ccc3=O)o2)cc1`, the AC50 under setting [1] was 39.8 µM [falling, single point].

`O=C(c1ccc2c(c1)N(Cc1c(F)cccc1Cl)C(=O)c1ccccc1S2)N1CCCC1`: under setting [1], the AC50 is 20 µM [falling, partial curve].

As to `Cc1ccnc(Nc2nc3ccccc3o2)n1`, the AC50 under setting [1] is 15.8 µM [falling, partial curve].

`CC(=O)N1CCCC1c1nc2ccccc2n1Cc1ccc(F)cc1` (centres undefined): the half-maximal activity concentration (AC50) under setting [1] is 15.8 µM [falling, single point].

In the case of `CCC(C)c1ccccc1OCC(=O)Nc1ccc(S(=O)(=O)Nc2cc(C)on2)cc1` (centres undefined), the AC50 under setting [1] is 39.8 µM [falling, single point].

For the compound `Cc1nn(-c2nc3ccccc3s2)c(C)c1Oc1ccccc1O`, under setting [1], the AC50 is 20 µM [falling, partial curve].

On to `O=C(Nc1cc(C(F)(F)F)ccc1N1CCOCC1)C1Cc2ccccc2CN1C(=O)c1ccco1` (centres undefined), for which, under setting [1], the AC50 was 20 µM [falling, partial curve].

For the compound `COc1cc(NS(=O)(=O)c2ccc(Br)cc2)c(OC)cc1NC(=O)c1ccco1`, the AC50 under setting [1] was 31.6 µM [falling, single point].

For the compound `Cc1ccc(NC(=O)Cn2c(=O)n(CCC(C)C)c(=O)c3cccnc32)cc1C`, the AC50 under setting [1] was 0.0398 µM [falling, full curve, poor fit].

For the compound `CCC(C(=O)NCCC(C)C)N(C(=O)Cn1nnc(-c2ccc(C)cc2)n1)c1cccc(O)c1` (centres undefined), the AC50 under setting [1] was 15.8 µM [falling, partial curve].

Take `COc1ccc(Cl)cc1NC(=O)Cn1c(=O)n(Cc2ccc(F)cc2)c(=O)c2cccnc21`: under setting [1], the AC50 was 20 µM [falling, partial curve].

With `CC1CN(C(=O)N2CCC(C(=O)NCc3ccccc3F)CC2)c2cc(Cl)ccc2O1` (centres undefined), under setting [1], the AC50 was 25.1 µM [falling, partial curve].

Take `COc1ccccc1N1CCN(C(=O)Cn2c(=O)nc(-c3ccccc3)c3ccccc32)CC1`: the AC50 under setting [1] is 25.1 µM [falling, single point].

Turning to `COc1cc2c(cc1OC)C(c1ccccc1)N(C(=O)c1ccco1)CC2` (centres undefined), under setting [1], the AC50 was 1 µM [rising, full curve, poor fit].

In the case of `O=C(O)c1cccc(OCc2ccccc2Cl)c1`, the AC50 under setting [1] was 10 µM [falling, partial curve].

As to `O=C(CCC1COc2ccccc2O1)Nc1ccc(Cl)cn1` (centres undefined), the AC50 under setting [1] was 7.94 µM [falling, full curve].

For the compound `Oc1ccccc1-c1nc(NCC2CCCO2)c2ccccc2n1` (centres undefined), the AC50 under setting [1] was 12.6 µM [falling, partial curve].

Turning to `CCOC(=O)c1cccc(NC(=O)c2cc(C)nc3c2c(C)nn3-c2ccc(C)cc2)c1`, the half-maximal activity concentration (AC50) under setting [1] was 12.6 µM [falling, partial curve].

For `COc1ccc(-c2onc(C)c2-c2ccc(C(=O)OC(C)C)o2)c(O)c1`, under setting [1], the AC50 was 31.6 µM [falling, single point].

As to `Clc1ccc(NCc2nncn2-c2ccccc2)cc1`, the AC50 under setting [1] is 20 µM [falling, partial curve].

As for `CCc1ccccc1S(=O)(=O)Cc1ccc(C(=O)N2CCN(c3ccccc3OC)CC2)o1`, the AC50 under setting [1] was 12.6 µM [falling, partial curve].

As to `Cc1cc(C)cc(NC(=O)C(=O)NCC(c2cccnc2)N2CCOCC2)c1` (centres undefined), the AC50 under setting [1] is 25.1 µM [falling, single point].

As to `COc1cccc(NC(=O)N2CCN(c3cccc(C)c3C)CC2)c1`, the AC50 under setting [1] is 25.1 µM [falling, partial curve].

On to `CN1C(=O)c2ccccc2Sc2ccc(NC(=O)N3CCN(c4ccc(F)cc4)CC3)cc21`, for which the AC50 under setting [1] is 10 µM [falling, partial curve].

For `COc1ccc(-c2nc(S(=O)(=O)c3ccccc3)c(N3CCC(C)CC3)o2)cc1`, the half-maximal activity concentration (AC50) under setting [1] was 7.94 µM [rising, single point].

As for `O=C(CN1CCN(c2ccccn2)CC1)N(c1ccccc1)c1ccc2ccccc2c1`, the AC50 under setting [1] was 39.8 µM [falling, single point].

In the case of `CCOc1ccc(CNC(=O)c2cc3cc(S(=O)(=O)N4CCCCC4)ccc3n2C)cc1`, the AC50 under setting [1] is 0.251 µM [falling, full curve].

For the compound `Oc1ccc(NCc2ccccc2OCc2ccccc2)cc1`, the AC50 (measured here: IkB-luc green channel) is 25.1 µM [rising, single point] and the AC50 (measured here: control luc red channel) was 25.1 µM [falling, partial curve].

As for `COc1ccc(C(=O)NCCc2csc(-c3ccc(Cl)cc3)n2)c(OC)c1`, the half-maximal activity concentration (AC50) under setting [1] is 10 µM [falling, partial curve].

As for `CSc1ccc(CCNC(=O)CN2C(=O)COc3ccc(S(=O)(=O)N4CCCCCC4)cc32)cc1`, the half-maximal activity concentration (AC50) under setting [1] is 31.6 µM [falling, single point].

On to `Cc1cnc(NC(=O)CSc2ncc(-c3ccccc3)n2Cc2ccco2)s1`, for which the AC50 under setting [1] was 12.6 µM [falling, partial curve].
